Data on 1 substance can be found in publication PMC4942602.

Sequences of proteins named here, by UniProt entry; tags and fusion partners are left off. A change or cut given only in a name is not applied to a line headed by its entry. A line that says so, or that is headed by a name, gives the form on record, which may keep a tag or linker. Residues count along the entry.
AUF1-p37^ΔN (residues 77–287) (Q14103-4, form named): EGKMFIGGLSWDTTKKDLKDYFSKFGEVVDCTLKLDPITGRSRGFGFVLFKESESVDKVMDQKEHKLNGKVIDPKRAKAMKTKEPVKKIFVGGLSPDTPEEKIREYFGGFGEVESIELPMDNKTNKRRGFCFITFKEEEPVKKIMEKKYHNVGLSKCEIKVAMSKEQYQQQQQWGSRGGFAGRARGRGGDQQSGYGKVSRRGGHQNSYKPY

No constants are given. Whether binding was seen depends on the method and setting.

The assay deals with AUF1-p37^ΔN (residues 77–287) (human) (UniProt Q14103). As to the kind of experiment: SEC; gel filtration after RNase A treatment (200 ug at cell lysis, 300 ug after Ni-NTA) and dialysis; HiPrep 16/60 Sephacryl S-300 HR, 25 mM Tris-HCl pH 7.5, 150 mM NaCl; without RNase A a broad peak of a multimeric form with bound E. coli RNA; both purified. For orientation: Size exclusion chromatography separates by hydrodynamic size, large species first.

Consider “AUF1-p37^ΔN (residues 77–287) (from UniProt Q14103-4 77-287) (domain or fragment)”, for which the binding result is “no binding”.
